Data on one molecule can be found in US20240238199A1, “STABLE LIQUID PHARMACEUTICAL COMPOSITIONS HAVING HIGH DRUG LOADINGS OF MEDIUM CHAIN TRIGLYCERIDES AND METHODS RELATED THERETO” (CERECIN INC., priority 2021, published 2024).

The nature of the series: Sweetening and flavouring agent taste / palatability investigation.

The structures appear in SMILES notation.

For `OC[C@H]1O[C@H](O[C@]2(CCl)O[C@H](CCl)[C@@H](O)[C@@H]2O)[C@H](O)[C@@H](O)[C@H]1Cl` [sucralose], the “concentration found to provide a sufficient level of sweetness” value is 0.05%-0.1.
